This list holds what a sample rich in targets with a hit left over. This is a noisy data set. Only a part is listed here, and it is no random draw.
Each target was assayed with COC(=O)/C=C/c1ccccc1 [methyl cinnamate] (assay: log2 ratio of iodoacetamide-alkyne labeling of the cysteine site, DMSO over compound (competition); higher = stronger covalent engagement of the cysteine by the compound, active = 1 or more). Conditions: 500 µM; treatment time 1 h; system: HEK293T cell lysate.
Summary of the method: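 HEK293T lysate at 2 mg/mL was treated with vehicle or electrophile (500 µM) for 1 h at ambient temperature, then labelled with iodoacetamide alkyne (1 h), clicked to sCIP-TMT reagents, pooled, digested with trypsin overnight at 37 °C, enriched on streptavidin and eluted with acid. Peptides were analysed by Orbitrap Eclipse LC-MS/MS with FAIMS and quantified in FragPipe, using duplicate channels and three replicates, with cysteines quantified in only one replicate excluded. The log2 competition ratio for each cysteine is the mean control-channel reporter intensity divided by the mean compound-channel reporter intensity.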

Protein sequences, listed by entry. Tags and fused reporters are not part of them. Lines headed by an entry give the natural chain unless they say otherwise; changes in a name come on top.
UniProt P09651: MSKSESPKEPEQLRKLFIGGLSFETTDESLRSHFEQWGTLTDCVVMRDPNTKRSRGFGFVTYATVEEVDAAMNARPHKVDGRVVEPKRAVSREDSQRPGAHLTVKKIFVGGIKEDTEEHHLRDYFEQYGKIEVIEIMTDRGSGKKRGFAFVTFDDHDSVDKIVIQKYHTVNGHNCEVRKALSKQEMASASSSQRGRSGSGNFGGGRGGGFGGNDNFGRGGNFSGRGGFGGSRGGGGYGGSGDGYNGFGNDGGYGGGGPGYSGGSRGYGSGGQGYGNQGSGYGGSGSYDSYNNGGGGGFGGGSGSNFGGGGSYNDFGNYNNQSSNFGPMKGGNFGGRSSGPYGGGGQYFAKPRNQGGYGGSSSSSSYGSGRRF
UniProt P17812: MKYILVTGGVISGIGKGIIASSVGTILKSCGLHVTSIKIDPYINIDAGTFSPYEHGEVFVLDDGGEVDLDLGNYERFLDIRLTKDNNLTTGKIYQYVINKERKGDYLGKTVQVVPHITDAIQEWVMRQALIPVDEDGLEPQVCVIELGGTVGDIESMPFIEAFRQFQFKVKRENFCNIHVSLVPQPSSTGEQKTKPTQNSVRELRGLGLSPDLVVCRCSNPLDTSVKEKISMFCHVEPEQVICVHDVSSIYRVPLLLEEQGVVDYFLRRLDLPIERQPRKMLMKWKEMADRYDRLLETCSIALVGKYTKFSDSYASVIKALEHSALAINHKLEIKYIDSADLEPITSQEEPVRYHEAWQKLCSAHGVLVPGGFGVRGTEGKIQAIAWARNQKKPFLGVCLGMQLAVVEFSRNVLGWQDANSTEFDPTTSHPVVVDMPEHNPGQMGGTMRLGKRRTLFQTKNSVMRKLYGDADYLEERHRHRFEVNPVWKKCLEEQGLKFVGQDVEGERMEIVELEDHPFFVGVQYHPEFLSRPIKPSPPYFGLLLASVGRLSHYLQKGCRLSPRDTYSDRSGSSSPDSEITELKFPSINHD
UniProt P17844: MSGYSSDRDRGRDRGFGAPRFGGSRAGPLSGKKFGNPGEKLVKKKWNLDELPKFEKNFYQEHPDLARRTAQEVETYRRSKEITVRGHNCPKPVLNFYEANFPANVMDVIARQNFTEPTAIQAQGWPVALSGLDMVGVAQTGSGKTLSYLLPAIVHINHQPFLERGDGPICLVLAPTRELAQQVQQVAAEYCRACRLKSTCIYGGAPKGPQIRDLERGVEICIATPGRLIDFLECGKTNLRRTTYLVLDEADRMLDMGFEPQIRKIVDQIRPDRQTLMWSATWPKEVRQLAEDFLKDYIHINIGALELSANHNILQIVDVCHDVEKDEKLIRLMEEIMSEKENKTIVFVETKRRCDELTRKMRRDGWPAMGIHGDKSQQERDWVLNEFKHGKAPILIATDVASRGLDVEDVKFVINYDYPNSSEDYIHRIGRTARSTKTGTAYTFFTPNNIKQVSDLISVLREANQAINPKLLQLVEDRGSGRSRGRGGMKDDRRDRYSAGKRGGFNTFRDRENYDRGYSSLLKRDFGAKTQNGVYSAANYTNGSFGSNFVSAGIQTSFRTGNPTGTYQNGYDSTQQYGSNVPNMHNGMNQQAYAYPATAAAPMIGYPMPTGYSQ
UniProt P09874, whole entry, looked up: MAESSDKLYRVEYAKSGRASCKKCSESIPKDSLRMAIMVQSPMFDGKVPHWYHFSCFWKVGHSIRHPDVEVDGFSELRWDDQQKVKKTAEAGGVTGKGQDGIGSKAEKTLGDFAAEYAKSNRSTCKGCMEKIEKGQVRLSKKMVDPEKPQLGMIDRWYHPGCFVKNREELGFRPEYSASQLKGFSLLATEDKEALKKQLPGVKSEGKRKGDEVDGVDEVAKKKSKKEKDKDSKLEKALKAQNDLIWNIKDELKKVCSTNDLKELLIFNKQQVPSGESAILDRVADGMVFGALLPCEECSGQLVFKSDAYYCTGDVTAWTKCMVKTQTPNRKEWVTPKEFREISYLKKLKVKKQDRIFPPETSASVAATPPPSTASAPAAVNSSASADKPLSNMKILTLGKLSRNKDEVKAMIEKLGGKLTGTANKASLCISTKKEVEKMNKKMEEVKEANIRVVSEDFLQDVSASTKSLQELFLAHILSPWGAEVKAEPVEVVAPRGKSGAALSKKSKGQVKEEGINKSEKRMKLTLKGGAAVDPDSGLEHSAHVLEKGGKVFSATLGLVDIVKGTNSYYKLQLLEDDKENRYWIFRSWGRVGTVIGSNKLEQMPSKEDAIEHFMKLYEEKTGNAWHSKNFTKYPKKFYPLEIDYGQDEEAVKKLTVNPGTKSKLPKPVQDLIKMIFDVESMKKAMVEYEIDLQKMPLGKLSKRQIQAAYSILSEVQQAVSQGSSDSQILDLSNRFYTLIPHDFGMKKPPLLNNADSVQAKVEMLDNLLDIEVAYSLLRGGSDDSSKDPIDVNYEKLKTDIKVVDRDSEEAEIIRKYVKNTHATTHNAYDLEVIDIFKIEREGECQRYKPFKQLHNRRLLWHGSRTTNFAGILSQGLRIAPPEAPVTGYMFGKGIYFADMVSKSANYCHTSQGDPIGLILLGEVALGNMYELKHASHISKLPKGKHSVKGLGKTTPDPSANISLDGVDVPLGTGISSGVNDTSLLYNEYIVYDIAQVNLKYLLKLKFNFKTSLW
UniProt P10599: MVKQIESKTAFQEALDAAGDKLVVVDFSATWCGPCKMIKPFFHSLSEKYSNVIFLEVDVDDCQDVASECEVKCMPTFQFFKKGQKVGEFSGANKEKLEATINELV
UniProt P13489: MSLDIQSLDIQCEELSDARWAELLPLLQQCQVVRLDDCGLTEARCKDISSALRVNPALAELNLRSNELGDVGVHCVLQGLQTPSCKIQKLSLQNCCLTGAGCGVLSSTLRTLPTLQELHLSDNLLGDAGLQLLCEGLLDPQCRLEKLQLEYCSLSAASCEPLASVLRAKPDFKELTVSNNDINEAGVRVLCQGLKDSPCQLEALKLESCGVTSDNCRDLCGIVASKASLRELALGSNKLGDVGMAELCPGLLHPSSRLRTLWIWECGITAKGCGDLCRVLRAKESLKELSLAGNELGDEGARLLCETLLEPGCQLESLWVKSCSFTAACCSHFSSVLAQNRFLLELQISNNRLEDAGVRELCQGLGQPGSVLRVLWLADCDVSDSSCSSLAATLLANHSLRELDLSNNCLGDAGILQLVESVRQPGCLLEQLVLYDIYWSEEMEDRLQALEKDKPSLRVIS
UniProt P11586, whole entry, looked up: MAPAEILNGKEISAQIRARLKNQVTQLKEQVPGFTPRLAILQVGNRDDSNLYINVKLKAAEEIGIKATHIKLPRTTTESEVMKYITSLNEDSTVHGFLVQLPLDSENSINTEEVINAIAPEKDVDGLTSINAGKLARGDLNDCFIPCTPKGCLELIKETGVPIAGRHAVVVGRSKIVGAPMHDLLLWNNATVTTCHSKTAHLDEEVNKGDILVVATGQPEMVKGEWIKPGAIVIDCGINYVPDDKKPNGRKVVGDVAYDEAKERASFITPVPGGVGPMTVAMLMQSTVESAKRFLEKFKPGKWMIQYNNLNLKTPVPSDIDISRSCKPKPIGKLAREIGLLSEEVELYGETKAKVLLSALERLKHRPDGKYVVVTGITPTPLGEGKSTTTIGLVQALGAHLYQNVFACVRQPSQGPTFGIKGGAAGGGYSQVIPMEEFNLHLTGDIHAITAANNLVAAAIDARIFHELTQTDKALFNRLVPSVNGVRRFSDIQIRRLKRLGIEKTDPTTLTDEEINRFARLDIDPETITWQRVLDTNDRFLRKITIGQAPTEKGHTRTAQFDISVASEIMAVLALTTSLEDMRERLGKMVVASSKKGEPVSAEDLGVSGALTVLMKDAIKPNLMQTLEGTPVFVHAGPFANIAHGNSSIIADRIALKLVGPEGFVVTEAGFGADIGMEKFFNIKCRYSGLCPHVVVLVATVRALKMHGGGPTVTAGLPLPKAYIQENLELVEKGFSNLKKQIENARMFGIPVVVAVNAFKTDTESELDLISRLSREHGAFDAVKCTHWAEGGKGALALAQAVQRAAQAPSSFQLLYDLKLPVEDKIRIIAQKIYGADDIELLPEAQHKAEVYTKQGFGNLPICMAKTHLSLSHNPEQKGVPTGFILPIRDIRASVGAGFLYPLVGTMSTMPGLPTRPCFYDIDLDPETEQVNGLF
UniProt P09543: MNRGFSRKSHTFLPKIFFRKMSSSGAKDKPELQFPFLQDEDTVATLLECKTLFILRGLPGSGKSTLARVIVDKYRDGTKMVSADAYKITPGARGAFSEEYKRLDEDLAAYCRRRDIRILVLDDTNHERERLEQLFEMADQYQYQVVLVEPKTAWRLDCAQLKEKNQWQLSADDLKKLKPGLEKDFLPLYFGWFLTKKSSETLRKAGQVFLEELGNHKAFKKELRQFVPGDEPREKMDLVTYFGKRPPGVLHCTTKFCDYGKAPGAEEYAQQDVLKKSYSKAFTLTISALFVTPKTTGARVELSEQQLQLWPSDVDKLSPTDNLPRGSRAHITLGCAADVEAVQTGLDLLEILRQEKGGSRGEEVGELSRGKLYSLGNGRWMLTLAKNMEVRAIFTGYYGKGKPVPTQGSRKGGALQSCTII
UniProt P14735, whole entry, looked up: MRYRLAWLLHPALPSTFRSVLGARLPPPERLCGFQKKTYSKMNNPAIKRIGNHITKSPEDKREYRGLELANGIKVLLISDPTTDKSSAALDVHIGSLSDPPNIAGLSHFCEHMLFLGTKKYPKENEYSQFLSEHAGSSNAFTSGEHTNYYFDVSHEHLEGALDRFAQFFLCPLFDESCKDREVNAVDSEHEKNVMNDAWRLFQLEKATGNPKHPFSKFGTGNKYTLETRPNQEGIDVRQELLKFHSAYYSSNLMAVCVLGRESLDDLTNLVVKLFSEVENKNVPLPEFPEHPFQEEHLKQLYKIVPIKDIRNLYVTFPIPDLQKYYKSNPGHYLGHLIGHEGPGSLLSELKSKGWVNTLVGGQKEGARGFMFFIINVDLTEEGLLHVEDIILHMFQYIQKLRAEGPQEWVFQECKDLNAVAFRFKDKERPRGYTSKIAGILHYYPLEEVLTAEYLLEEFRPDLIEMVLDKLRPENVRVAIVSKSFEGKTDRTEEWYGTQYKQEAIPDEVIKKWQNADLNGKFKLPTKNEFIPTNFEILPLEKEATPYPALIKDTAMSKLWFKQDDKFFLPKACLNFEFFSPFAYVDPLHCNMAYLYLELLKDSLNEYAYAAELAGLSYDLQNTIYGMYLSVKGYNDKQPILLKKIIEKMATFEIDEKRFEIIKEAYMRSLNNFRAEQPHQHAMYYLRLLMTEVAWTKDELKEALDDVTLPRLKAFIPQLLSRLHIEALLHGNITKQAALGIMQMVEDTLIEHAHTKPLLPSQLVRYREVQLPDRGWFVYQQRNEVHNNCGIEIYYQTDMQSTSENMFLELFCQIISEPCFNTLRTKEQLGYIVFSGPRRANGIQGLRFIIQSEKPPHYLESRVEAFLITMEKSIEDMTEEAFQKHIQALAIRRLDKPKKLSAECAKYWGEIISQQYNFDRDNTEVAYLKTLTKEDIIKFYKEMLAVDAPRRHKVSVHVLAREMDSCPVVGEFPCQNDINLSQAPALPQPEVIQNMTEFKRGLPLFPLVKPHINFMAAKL
UniProt P16615: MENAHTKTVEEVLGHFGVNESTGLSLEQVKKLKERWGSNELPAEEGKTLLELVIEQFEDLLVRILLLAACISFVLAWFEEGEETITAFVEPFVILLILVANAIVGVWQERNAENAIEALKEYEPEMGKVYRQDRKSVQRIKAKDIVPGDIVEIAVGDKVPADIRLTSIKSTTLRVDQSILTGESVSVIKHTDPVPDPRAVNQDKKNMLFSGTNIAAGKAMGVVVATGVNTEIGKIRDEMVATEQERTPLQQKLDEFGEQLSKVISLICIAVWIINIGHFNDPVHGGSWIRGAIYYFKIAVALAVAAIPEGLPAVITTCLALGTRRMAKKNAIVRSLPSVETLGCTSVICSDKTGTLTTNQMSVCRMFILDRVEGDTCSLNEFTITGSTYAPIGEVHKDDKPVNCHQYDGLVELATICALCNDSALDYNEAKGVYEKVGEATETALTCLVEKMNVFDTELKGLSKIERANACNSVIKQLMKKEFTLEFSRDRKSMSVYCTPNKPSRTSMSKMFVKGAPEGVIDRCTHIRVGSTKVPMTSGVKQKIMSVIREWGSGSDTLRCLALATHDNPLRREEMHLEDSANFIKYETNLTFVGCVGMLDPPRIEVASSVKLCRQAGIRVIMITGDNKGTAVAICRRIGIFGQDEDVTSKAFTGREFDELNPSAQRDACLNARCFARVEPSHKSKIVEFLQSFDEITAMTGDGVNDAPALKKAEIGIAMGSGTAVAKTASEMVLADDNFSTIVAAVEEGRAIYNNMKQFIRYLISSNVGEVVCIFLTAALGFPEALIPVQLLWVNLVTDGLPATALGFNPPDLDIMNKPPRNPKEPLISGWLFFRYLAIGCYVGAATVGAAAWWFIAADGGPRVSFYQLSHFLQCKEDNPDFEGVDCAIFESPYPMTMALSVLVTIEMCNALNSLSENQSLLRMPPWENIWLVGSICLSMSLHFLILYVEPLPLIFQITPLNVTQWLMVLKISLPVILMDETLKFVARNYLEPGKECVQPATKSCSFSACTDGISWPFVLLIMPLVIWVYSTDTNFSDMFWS

log2 ratio of iodoacetamide-alkyne labeling, inactive:
HNRNPL C396 (UniProt P14866) 0.165, HNRNPA1 C43 (UniProt P09651) 0.114, CKMT1A C76 (UniProt P12532) 0.27, ACADM C156 (UniProt P11310) 0.342, UniProt P17812_C491 0.245, DDX5 C191 (UniProt P17844) -0.0155, DBT C333 (UniProt P11182) 0.0844, PARP1 C24 (UniProt P09874) 0.0337, CAPN2 C640 (UniProt P17655) 0.164, PYGB C326 (UniProt P11216) -0.181, TXN C35 (UniProt P10599) 0.214, G6PD C294 (UniProt P11413) -0.085, LAMC1 C1600 (UniProt P11047) 0.227, RPS17 C35 (UniProt P08708) 0.0883, TPR C75 (UniProt P12270) 0.336, UniProt P17812_C218 -0.00243, EPRS C660 (UniProt P07814) -0.126, RNH1 C96 (UniProt P13489) 0.331, MTHFD1 C408 (UniProt P11586) -0.111, MTHFD1 C691 (UniProt P11586) 0.0933, IMPDH2 C140 (UniProt P12268) 0.168, HSP90AA1 C598 (UniProt P07900) -0.112, UniProt P10155_C520 -0.0851, IMPDH2 C339 (UniProt P12268) 0.292, ARAF C597 (UniProt P10398) 0.214, MTHFD1 C147 (UniProt P11586) 0.1, EEF2 C812 (UniProt P13639) -0.0064, HSP90AA1 C420 (UniProt P07900) -0.0263, CNP C158 (UniProt P09543) 0.155, CNP C111 (UniProt P09543) -0.0499, CBR1 C150 (UniProt P16152) 0.158, HNRNPL C521 (UniProt P14866) 0.00341, UniProt P07947_C42 0.427, PYGB C496 (UniProt P11216) 0.322, IDE C966 (UniProt P14735) 0.103, ATP2A2 C447 (UniProt P16615) 0.0446, DSP C110 (UniProt P15924) -0.245

From the supplement of paper PMC11006884
